Experiment [1] deals with endogenous PHGDH (pig (endogenous in PK-15)) (UniProt A5GFY8). As to the kind of experiment: co-IP; expressed CSFV NS4A and endogenous PHGDH; cells not given.
For experiment [2], the target named is PHGDH (exogenous, tag not stated) (UniProt A5GFY8). As to the kind of experiment: co-IP.
The target in a further experiment is T1, PHGDH-K364R (UniProt A5GFY8).
T1 sequence: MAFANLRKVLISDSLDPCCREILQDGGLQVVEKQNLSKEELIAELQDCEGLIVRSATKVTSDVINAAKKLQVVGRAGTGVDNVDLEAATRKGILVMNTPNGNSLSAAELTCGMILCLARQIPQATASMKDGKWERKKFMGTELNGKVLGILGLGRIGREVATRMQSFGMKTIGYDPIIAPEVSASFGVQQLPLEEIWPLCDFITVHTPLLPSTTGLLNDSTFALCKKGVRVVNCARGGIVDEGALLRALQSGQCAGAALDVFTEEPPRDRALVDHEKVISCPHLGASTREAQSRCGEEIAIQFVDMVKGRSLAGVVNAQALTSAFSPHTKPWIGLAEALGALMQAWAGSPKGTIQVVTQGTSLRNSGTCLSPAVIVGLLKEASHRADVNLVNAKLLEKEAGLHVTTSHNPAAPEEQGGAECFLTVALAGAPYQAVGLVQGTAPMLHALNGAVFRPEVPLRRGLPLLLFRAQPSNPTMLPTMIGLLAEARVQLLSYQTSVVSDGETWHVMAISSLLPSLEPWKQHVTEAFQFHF
As to the kind of experiment: co-IP.

By UniProt entry, the sequences of proteins in these tests, tags left out. Residues count along the entry.
UniProt P19712, residues 2273-2336: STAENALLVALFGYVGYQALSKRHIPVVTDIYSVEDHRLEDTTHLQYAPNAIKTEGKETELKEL

These are yes or no findings as the source states them, for the method shown. In cells and extracts the contact can be indirect. Some entries that bind do so weakly or less than the wild type.

Turning to “CSFV NS4A protein (from UniProt P19712 2273-2336)”, the binding result in experiment [1] and in experiment [2] was “binds” each time.

B1: TRAF6 (enzyme, UniProt A7XUJ6 1-541)
chain: MSLLHCENSCGSSQSESDCCAAMAASSCGAAAKDDGVSGTASTGNLSSSFMEEIQGYDVEFDPPLESKYECPICLMALREAVQTPCGHRFCKACIIKSIRDAGHKCPVDNEILLENQLFPDNFAKREILSLTVKCPNVGCLHKMELRHLEDHQAHCEFALMNCPQCQRPFQKCQLNIHILKECPRRQVSCVNCAVSMAFEDKEIHDQNCPLANVICEYCNTVLIREQMPNHYDLDCPTAPVPCTFSTFGCHEKMQRNHLARHLQENTQSHMRMMAQALQGLSLAVAPVPQRDMLPYDSSPLSRISSGCCSDQNFQETIQQLEGRLVRQDHQIRELTAKMETQSMYVSELKRTIRSLEDKVAEIEAQQCNGIYIWKIGNFGMHLKSQEEEKPVVIHSPGFYTGKPGYKLCMRLHLQLPTAQRCANYISLFVHTMQGEYDSHLPWPFQGTIRLTILDQSEAPIRQNHEEIMDAKPELLAFQRPTIPRNPKGFGYVTFMHLDALRQRTFIKDDTLLVRCEVSTRFDMGSLRREGFQPRSTDSGT
With B1, in the experiment with PHGDH-K364R, the binding entry is on record as “no binding”.

For the origin of these results see publication PMC11481501.
